Data taken from PMC7093646.
Results are given in words; binding and its absence hold for the method and conditions named. Binding seen in cells or lysates may run through a third protein.

Target: T1, ANO1 (Ca2+-activated Cl- channel encoded by Ano1) (mouse (endogenous in small intestine muscle and ICC)) (UniProt Q8BHY3)
T1 sequence: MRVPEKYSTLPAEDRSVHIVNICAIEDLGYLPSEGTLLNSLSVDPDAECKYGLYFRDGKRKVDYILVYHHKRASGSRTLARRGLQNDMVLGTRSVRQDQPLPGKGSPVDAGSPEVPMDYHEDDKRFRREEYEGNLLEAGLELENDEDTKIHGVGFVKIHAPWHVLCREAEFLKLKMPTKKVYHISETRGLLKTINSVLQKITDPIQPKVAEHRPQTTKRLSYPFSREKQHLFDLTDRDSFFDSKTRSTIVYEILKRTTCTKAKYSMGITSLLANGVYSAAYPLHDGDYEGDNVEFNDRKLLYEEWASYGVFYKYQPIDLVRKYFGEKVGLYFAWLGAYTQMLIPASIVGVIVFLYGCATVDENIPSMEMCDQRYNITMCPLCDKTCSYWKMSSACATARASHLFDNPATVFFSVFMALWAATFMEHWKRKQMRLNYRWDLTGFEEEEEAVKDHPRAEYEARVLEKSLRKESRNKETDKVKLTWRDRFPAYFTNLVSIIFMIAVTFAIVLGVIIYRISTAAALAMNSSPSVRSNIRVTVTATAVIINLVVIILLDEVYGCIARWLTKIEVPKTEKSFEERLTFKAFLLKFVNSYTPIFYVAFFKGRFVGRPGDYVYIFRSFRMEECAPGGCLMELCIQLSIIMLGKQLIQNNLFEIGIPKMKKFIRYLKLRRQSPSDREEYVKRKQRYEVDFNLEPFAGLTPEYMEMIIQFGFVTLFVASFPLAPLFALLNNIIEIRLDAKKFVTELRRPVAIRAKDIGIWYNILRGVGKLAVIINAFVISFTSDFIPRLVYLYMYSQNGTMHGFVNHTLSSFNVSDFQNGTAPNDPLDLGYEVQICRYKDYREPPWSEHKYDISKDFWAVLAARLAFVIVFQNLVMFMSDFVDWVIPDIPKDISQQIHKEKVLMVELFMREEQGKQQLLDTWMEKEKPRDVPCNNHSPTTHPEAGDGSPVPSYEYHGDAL
Assay: proximity ligation; isolated small intestinal ICC, fixed in 4% paraformaldehyde and permeabilized; goat anti-NCX3 and rabbit anti-ANO1 primary antibodies, Duolink secondary antibodies; PLA spots per cell divided by cell area and normalized; negative control with rabbit anti-ANO1 and mouse anti-myosin light chain

- binding: no binding
Substance: myosin regulatory light chain (mouse (endogenous in ICC))
